PubChem BioAssay AID652243 | Drosophila RNAi Screening Center, 2013
The screen tested about 24,000 reagents; shown is a random part of those with a known target gene and a result. In the full data, 246 (1%) are marked active. 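Plates not normalised; calls are printed but the firefly/Renilla ratio behind them is not deposited; fold cut for lowering reported inconsistently.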 Raw values vary from plate to plate and are shown uncorrected. The record does not give: the amount of reagent.

Assay: 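Fly genes required for human androgen receptor driven transcription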 (primary screen)
Cells: Drosophila S2R+ cells
Reagent: long dsRNA against Drosophila genes
Timing: 72 h (48 h, then 24 h hormone)
Conditions: synthetic androgen R1881 at 10 nM for 24 h
Measured: 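Per-well raw luminescence of the androgen-driven firefly reporter and of the Renilla control, two replicates each, without normalisation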
Reading the numbers: firefly reporter light: higher = more light from androgen-responsive reporter; Renilla control light: higher = more constitutive control signal (cell number, transfection)
Rule for the call: 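Hit when the log firefly-to-Renilla ratio dropped or increased by a fixed fold versus the mean of GFP or LacZ controls across duplicate plates; lowering cut given as 1.5 and as 3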
Meaning of the calls: active = hit: reporter lowered or raised; inactive = no hit

Which result is listed for CG14683 [DRSC17035]?
firefly reporter light, replicate 1: 1.06e5; firefly reporter light, replicate 2: 1.18e5; Renilla control light, replicate 1: 1.05e6; Renilla control light, replicate 2: 1.04e6; Call: inactive

With DnaJ-1 [DRSC11145], what does the deposit list?
firefly reporter light, replicate 1: 5.59e5; firefly reporter light, replicate 2: 6.89e5; Renilla control light, replicate 1: 1.01e6; Renilla control light, replicate 2: 1.02e6; Call: inactive

What did the screen give for CG30491 [DRSC21472]?
firefly reporter light, replicate 1: 6.49e5; firefly reporter light, replicate 2: 6.42e5; Renilla control light, replicate 1: 1.51e6; Renilla control light, replicate 2: 1.34e6; Call: inactive

Which result is listed for CG30491 [DRSC25369]?
firefly reporter light, replicate 1: 6.50e5; firefly reporter light, replicate 2: 6.49e5; Renilla control light, replicate 1: 6.33e5; Renilla control light, replicate 2: 6.12e5; Call: inactive

What did the screen give for CG6418 [DRSC10633]?
firefly reporter light, replicate 1: 1.17e6; firefly reporter light, replicate 2: 7.54e5; Renilla control light, replicate 1: 1.70e6; Renilla control light, replicate 2: 1.22e6; Call: inactive

For CG6418 [DRSC27621], what was measured?
firefly reporter light, replicate 1: 2.43e5; firefly reporter light, replicate 2: 2.03e5; Renilla control light, replicate 1: 6.99e5; Renilla control light, replicate 2: 9.00e5; Call: inactive

What is on record for CG13049 [DRSC09930]?
firefly reporter light, replicate 1: 2.41e5; firefly reporter light, replicate 2: 2.54e5; Renilla control light, replicate 1: 2.25e6; Renilla control light, replicate 2: 1.73e6; Call: inactive

With CG13049 [DRSC24850], what does the deposit list?
firefly reporter light, replicate 1: 1.47e6; firefly reporter light, replicate 2: 1.11e6; Renilla control light, replicate 1: 1.33e6; Renilla control light, replicate 2: 1.09e6; Call: inactive

Which result is listed for CG9095 [DRSC20150]?
firefly reporter light, replicate 1: 3.25e5; firefly reporter light, replicate 2: 3.45e5; Renilla control light, replicate 1: 2.32e6; Renilla control light, replicate 2: 2.27e6; Call: inactive

With CG11368 [DRSC17778], what does the deposit list?
firefly reporter light, replicate 1: 2.04e5; firefly reporter light, replicate 2: 1.49e5; Renilla control light, replicate 1: 2.07e6; Renilla control light, replicate 2: 2.20e6; Call: inactive

For CR30409 [DRSC22058], what does the deposit list?
firefly reporter light, replicate 1: 8.66e5; firefly reporter light, replicate 2: 7.80e5; Renilla control light, replicate 1: 2.30e6; Renilla control light, replicate 2: 1.67e6; Call: inactive

What is on record for HDAC6 [DRSC20252]?
firefly reporter light, replicate 1: 92033; firefly reporter light, replicate 2: 1.27e5; Renilla control light, replicate 1: 7.12e5; Renilla control light, replicate 2: 8.13e5; Call: inactive

For HDAC6 [DRSC29348], how do the results read?
firefly reporter light, replicate 1: 3.23e5; firefly reporter light, replicate 2: 3.37e5; Renilla control light, replicate 1: 8.65e5; Renilla control light, replicate 2: 8.65e5; Call: inactive

What did the screen give for rig [DRSC06053]?
firefly reporter light, replicate 1: 1.03e6; firefly reporter light, replicate 2: 8.48e5; Renilla control light, replicate 1: 1.34e6; Renilla control light, replicate 2: 9.08e5; Call: inactive

For rig [DRSC06400], what was measured?
firefly reporter light, replicate 1: 39560; firefly reporter light, replicate 2: 84465; Renilla control light, replicate 1: 7.69e5; Renilla control light, replicate 2: 8.78e5; Call: inactive

For CG7126 [DRSC16201], how do the results read?
firefly reporter light, replicate 1: 76040; firefly reporter light, replicate 2: 90103; Renilla control light, replicate 1: 8.76e5; Renilla control light, replicate 2: 1.13e6; Call: inactive

With CG7126 [DRSC25839], how do the results read?
firefly reporter light, replicate 1: 3.92e5; firefly reporter light, replicate 2: 3.62e5; Renilla control light, replicate 1: 1.41e6; Renilla control light, replicate 2: 1.38e6; Call: inactive

With CG7126 [DRSC39071], what was measured?
firefly reporter light, replicate 1: 4.14e5; firefly reporter light, replicate 2: 4.11e5; Renilla control light, replicate 1: 1.24e6; Renilla control light, replicate 2: 1.51e6; Call: inactive

How did the screen score Osi21 [DRSC02408]?
firefly reporter light, replicate 1: 2.55e5; firefly reporter light, replicate 2: 1.35e5; Renilla control light, replicate 1: 2.09e6; Renilla control light, replicate 2: 1.38e6; Call: inactive

For CG10839 [DRSC01965], what was measured?
firefly reporter light, replicate 1: 1.77e5; firefly reporter light, replicate 2: 1.74e5; Renilla control light, replicate 1: 1.79e6; Renilla control light, replicate 2: 2.39e6; Call: inactive

For CG4324 [DRSC04462], what was measured?
firefly reporter light, replicate 1: 2.09e5; firefly reporter light, replicate 2: 2.65e5; Renilla control light, replicate 1: 1.11e6; Renilla control light, replicate 2: 1.20e6; Call: inactive

For CG4324 [DRSC27530], how do the results read?
firefly reporter light, replicate 1: 1.97e5; firefly reporter light, replicate 2: 2.11e5; Renilla control light, replicate 1: 5.21e5; Renilla control light, replicate 2: 8.62e5; Call: inactive

Copied from the list:
Under “firefly reporter light, replicate 2”, CG30491 [DRSC25369] reads 6.49e5
CG4324 [DRSC04462], firefly reporter light, replicate 2: 2.65e5
